Results: publication PMC8934638, “H3K36 methylation and DNA-binding both promote Ioc4 recruitment and Isw1b remodeler function”

Target: T1, Ioc4 PWWP domain (Saccharomyces cerevisiae) (UniProt Q04213)
T1 sequence (looked up): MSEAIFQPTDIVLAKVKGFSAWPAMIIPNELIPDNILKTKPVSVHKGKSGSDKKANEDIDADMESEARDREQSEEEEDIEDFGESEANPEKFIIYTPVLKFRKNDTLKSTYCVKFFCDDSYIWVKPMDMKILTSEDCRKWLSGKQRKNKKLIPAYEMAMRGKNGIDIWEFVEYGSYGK
Assay: EMSA
Conditions: 15 fmol NCP (30 fmol unmodified NCP) per reaction, 5% native PAGE (37.5:1) in 0.4x TBE, 2% glycerol, binding buffer, pH and temperature not given (as in cited work), recombinant protein, residues 1-178, protein details: N-terminal 6xHis

| Sequence | Kd (label: Cy5, single-stranded DNA) | Kd (label: Cy5) |
| --- | --- | --- |
| GGCAAGGTCGCTGTTCAATACATGCACAGG [ssDNA 30 nt] | 1.65 µM |  |
| GGCAAGGUCGCUGUUCAAUACAUGCACAGG [ssRNA 30 nt] |  | 0.64 µM |

The exact form of at least one protein or probe is not confirmed. Where a protein sequence is shown, tags need not be part of it.
